Reference: the supplement of paper PMC8326762, “A Small Molecule Inhibitor of Pex3–Pex19 Interaction Disrupts Glycosome Biogenesis and Causes Lethality in Trypanosoma brucei” (Frontiers in Cell and Developmental Biology, 2021)
Counter-ions that a name gives are not always drawn. The list shows a part of the results. This is a noisy data set.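 Optical density at 600 nm measured yeast growth. Because the two-hybrid strains grew without histidine, growth required Pex3–Pex19 binding. Trypanosome selectivity meant a compound inhibited the trypanosome-pair strain's growth by more than 65% but the human-pair strain's by less than 65%.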

How the values were obtained:
[1] = test system: Saccharomyces cerevisiae HF7c pdr5Δ; assay: general growth inhibition of yeast HF7c pdr5Δ in -Leu -Trp medium, relative to DMSO; higher = stronger general growth inhibition; settings: 100 µM; 24 h
[2] = test system: human PEX3-PEX19 interaction (yeast two-hybrid); assay: growth inhibition of yeast two-hybrid strain reporting HsPex3-HsPex19 interaction, relative to DMSO; higher = stronger inhibition of human Pex3-Pex19 interaction / growth; settings: 100 µM; 24 h; 3-aminotriazole 10 mM
[3] = test system: T. brucei Pex3-Pex19 interaction (yeast two-hybrid); assay: growth inhibition of yeast two-hybrid strain reporting TbPex3-TbPex19 interaction, relative to DMSO; higher = stronger inhibition of T. brucei Pex3-Pex19 interaction / growth; settings: 100 µM; 24 h

Structure (SMILES) | general growth inhibition [1] [%] | growth inhibition [2] [%] | growth inhibition [3] [%]
CC(=O)[C@H]1CC[C@H]2[C@@H]3CC[C@H]4C[C@](C)(O)CC[C@]4(C)[C@H]3CC[C@]12C [Ganaxolone] | 34.4 | 33.2 | 54
CC(Cc1ccc(OCC(=O)O)cc1)NCC(O)c1cccc(Cl)c1 (stereo not drawn) | 48.6 | 55.3 | 66.6
NC(Cn1oc(=O)[nH]c1=O)C(=O)O (single isomer, unassigned; (+)) [(+)-Quisqualic acid] | 32.3 | 43.4 | 58.8
NNC(=O)c1ccc(O)cc1 [4-Hydroxybenzhydrazide] | 24.6 | 35.4 | 54
NCCc1c[nH]c2ccc(O)cc12 [Serotonin hydrochloride] | 37.8 | 40.2 | 62
NC(=O)CI [Iodoacetamide] | 87.1 | 81.7 | 79.3
CC(=O)[C@H]1CC[C@H]2[C@@H]3CC[C@H]4C[C@H](O)CC[C@]4(C)[C@H]3CC[C@]12C [5alpha-Pregnan-3alpha-ol-20-one] | 53.7 | 38.7 | 51.1
O=c1[nH]c2ccccc2n1C1CCN(CCCC(c2ccc(F)cc2)c2ccc(F)cc2)CC1 [Pimozide] | 48 | 65.8 | 61.6
CCn1cnc2c(Nc3cccc(Cl)c3)nc(N[C@@H]3CCCC[C@@H]3N)nc21 | 24.8 | 25.1 | 42.5
CCCN1CCC[C@@H](c2cccc(O)c2)C1 [S(-)-3PPP hydrochloride] | 58.7 | 47.4 | 68
C=C(C)[C@@H]1[C@H]2OC(=O)[C@@H]1[C@]1(O)C[C@H]3OC34C(=O)O[C@H]2[C@@]41C.CC(C)(O)[C@@H]1[C@H]2OC(=O)[C@@H]1[C@]1(O)C[C@H]3OC34C(=O)O[C@H]2[C@@]41C (stereo partly drawn) [Picrotoxin] | 57.9 | 51.9 | 71.8
Cn1cnc(CCN)c1 [1-Methylhistamine dihydrochloride] | 49 | 44.7 | 66.2
CC[C@@H](CO)NC(=O)[C@@H]1C=C2c3cccc4[nH]cc(c34)C[C@H]2N(C)C1 [Methylergonovine maleate] | 32.6 | 30.9 | 46.3
CN1[C@@H]2CC[C@H]1C[C@@H](OC(=O)C(CO)c1ccccc1)C2 (stereo partly drawn) [Atropine sulfate] | 37.7 | 32.4 | 65.1
C=CCc1ccccc1OCC(O)CNC1(C)CCC(C(C)(C)NC(=O)CBr)CC1 (stereo not drawn) [Bromoacetyl alprenolol menthane] | 41.7 | 63.1 | 67.1
CC(CCc1ccccc1)NC(C)C(O)c1ccc(O)cc1 (stereo not drawn) [Nylidrin hydrochloride] | 52.7 | 40.5 | 60.2
NCC(O)c1ccc(O)cc1 (racemic) [(±)-Octopamine hydrochloride] | 44.6 | 53.6 | 61.2
NC1CCc2cc(O)c(O)cc2C1 (stereo not drawn) [6,7-ADTN hydrobromide] | 32.7 | 41.1 | 47.7
N#C/C(=C\c1ccc(O)c(O)c1)C(N)=S [Tyrphostin 47] | 40.1 | 38.2 | 53.1
O=[N+]([O-])c1ccc2nc(N3CCNCC3)ccc2c1 [Quipazine, 6-nitro-, maleate] | 43.9 | 52.3 | 65.7
C#CCOC(=O)C1=CCCN(C)C1 [Arecaidine propargyl ester hydrobromide] | 43.6 | 44.4 | 64.1

Structure (SMILES) | general growth inhibition [1] [%] | growth inhibition [2] [%] | growth inhibition [3] [%]
N=C(N)c1ccc(CS(=O)(=O)F)cc1 [4-Amidinophenylmethanesulfonyl fluoride hydrochloride] | 46.3 | 45.6 | 72.4
CC(N)Cc1c[nH]c2ccc(O)cc12 (stereo not drawn) [alpha-Methyl-5-hydroxytryptamine maleate] | 52.1 | 45.7 | 63.1
NCC(CC(=O)O)c1ccc(Cl)cc1 (racemic) [(±)-Baclofen] | 30.9 | 32.2 | 58.6
C[C@@]12N[C@@H](Cc3ccccc31)c1ccccc12 [(-)-MK-801 hydrogen maleate] | 36.2 | 28 | 56.4
C1CCc2nnnn2CC1 [Pentylenetetrazole] | 51.6 | 46.9 | 57
CCC1(c2ccc(N)cc2)CCC(=O)NC1=O (racemic) [(±)-p-Aminoglutethimide] | 46.1 | 40.3 | 52.4
CCCCCCCCCCCCCC(=O)O[C@@H]1[C@@H](C)[C@@]2(O)[C@@H](C=C(CO)C[C@]3(O)C(=O)C(C)=C[C@@H]23)[C@@H]2C(C)(C)[C@]12OC(C)=O [Phorbol 12-myristate 13-acetate] | 30.7 | 27.7 | 49.5
NCCCNCCSP(=O)(O)O [Amifostine] | 52.4 | 47.9 | 65.6
Oc1ccc2c3c1O[C@H]1c4[nH]c5ccccc5c4C[C@@]4(O)[C@@H](C2)N(CC2CC2)CC[C@]314 [Naltrindole hydrochloride] | 47.5 | 41.3 | 62.4
CCCN1CCc2cccc3c2[C@H]1Cc1ccc(O)c(O)c1-3 [R(-)-Propylnorapomorphine hydrochloride] | 36.6 | 30 | 60.8
Cc1ccc(S(=O)(=O)N[C@@H](CCCCN)C(=O)CCl)cc1 [Na-p-Tosyl-L-lysine chloromethyl ketone hydrochloride] | 58.3 | 45.4 | 70.1
CC[C@@]1(O)C(=O)OCc2c1cc1n(c2=O)Cc2cc3ccccc3nc2-1 [(S)-(+)-Camptothecin] | 21.4 | 11.7 | 35.8
Cc1c2ccncc2c(C)c2c1[nH]c1ccccc12 [Ellipticine] | 87.8 | 84.2 | 81.5
O=C(O)CC[N+](=O)[O-] [3-Nitropropionic acid] | 40.3 | 50.4 | 72.6
NC(N)=NOCC[C@H](N)C(=O)O [L-Canavanine] | 23.8 | 29.1 | 46
CP(=O)(O)C1=CCNCC1 | 50.7 | 51.5 | 55.5
CNCCc1ccc(O)c(O)c1 [N-Methyldopamine hydrochloride] | 31.9 | 47.6 | 60.4
O=C1C=CC(=O)C=C1 [p-Benzoquinone] | 74.1 | 42.3 | 73
CCCN1CCC[C@@H]2Cc3n[nH]cc3C[C@H]21 [(-)-Quinpirole hydrochloride] | 65.6 | 47.7 | 69.1
O=C[C@H](Cl)[C@@H](O)[C@H](O)[C@H](O)CO [2-Chloro-2-deoxy-D-glucose] | 38.2 | 45.5 | 64.7
CCCN1C[C@H](CSC)C[C@@H]2c3cccc4[nH]cc(c34)C[C@H]21 [Pergolide methanesulfonate] | 57.5 | 54.2 | 65.3

Structure (SMILES) | general growth inhibition [1] [%] | growth inhibition [2] [%] | growth inhibition [3] [%]
CC(=O)NBr [N-Bromoacetamide] | 36.4 | 38.8 | 50.7
Cc1sc2ccccc2c1CC1=NCCN1 [Benazoline oxalate] | 39.2 | 41.1 | 60.1
O=C1CC[C@@]2(O)[C@H]3Cc4ccc(O)c5c4[C@@]2(CCN3CC2CC2)[C@H]1O5 [Naltrexone hydrochloride] | 48.4 | 43.9 | 64.6
COc1ccc2[nH]c3c(c2c1)CCNC3 [6-Methoxy-1,2,3,4-tetrahydro-9H-pyrido[3,4b] indole] | 7.23 | 10.9 | 31
c1ccc(CCCN2CCN(CCOC(c3ccccc3)c3ccccc3)CC2)cc1 | 9.94 | -11 | 27.1
C[N+]1(C)C2CCC1CC(OC(=O)c1c[nH]c3ccccc13)C2 (stereo not drawn) [3-Tropanylindole-3-carboxylate methiodide] | 12.5 | 12.6 | 37.2
CN1CCC(c2c[nH]c3ccc(O)cc23)CC1 | 36.8 | 46.3 | 64
c1ccc2sc(C3(N4CCCCC4)CCCCC3)cc2c1 [BTCP hydrochloride] | 24.2 | 28.8 | 58.6
NCCc1ccc(S(=O)(=O)F)cc1 [4-(2-Aminoethyl)benzenesulfonyl fluoride hydrochloride] | 42.7 | 40.7 | 57.3
CCNC(=O)[C@H]1O[C@@H](n2cnc3c(N)ncnc32)[C@H](O)[C@@H]1O [5'-N-Ethylcarboxamidoadenosine] | 26 | 51.9 | 59.5
CCCC[N+]1(C)[C@@H]2C[C@@H](OC(=O)[C@H](CO)c3ccccc3)C[C@H]1[C@@H]1O[C@@H]12 (single isomer, unassigned; (-)) [(-)-Scopolamine,n-Butyl-, bromide] | 52.3 | 49.6 | 69.8
CCCN(CCC)C1CCc2cccc(O)c2C1 (racemic) [(±)-8-Hydroxy-DPAT hydrobromide] | 38.8 | 48.6 | 50.6
C[C@]12CC[C@@H](O)C[C@@H]1CC[C@@H]1[C@@H]2CC[C@]2(C)[C@@H](C(=O)CO)CC[C@@H]12 [3-alpha,21-Dihydroxy-5-alpha-pregnan-20-one] | 57.4 | 53.6 | 64.8
CC1(C(=O)O)C2CCC(O2)C1(C)C(=O)O (stereo not drawn) [Cantharidic Acid] | 77 | 63.2 | 61.9
C[N+](C)(C)CC#CCN1CCCC1=O [Oxotremorine methiodide] | 16.1 | 13.9 | 40.8
COc1cc([C@@H]2c3cc4c(cc3[C@H](O)[C@H]3COC(=O)[C@H]23)OCO4)cc(OC)c1OC [Podophyllotoxin] | 38.5 | 39.7 | 74.2
Ic1ccccc1CNC1C2CCN(CC2)C1C(c1ccccc1)c1ccccc1 [L-703,606 oxalate salt hydrate] | 33.3 | 25.1 | 67
CCCn1c(=O)c2[nH]c(C3CCCC3)nc2n(CCCOC(=O)c2ccc(S(=O)(=O)F)cc2)c1=O | 29.6 | 13.2 | 39.1
CC(N)c1cccc(Cl)c1Cl (racemic) [(±)-2,3-Dichloro-alpha-methylbenzylamine hydrochloride] | 23.5 | 30.7 | 51.9

Two entries from above, in markdown:

| Structure (SMILES) | general growth inhibition [1] [%] | growth inhibition [2] [%] | growth inhibition [3] [%] |
| --- | --- | --- | --- |
| c1ccc2sc(C3(N4CCCCC4)CCCCC3)cc2c1 [BTCP hydrochloride] | 24.2 | 28.8 | 58.6 |
| NCCc1ccc(S(=O)(=O)F)cc1 [4-(2-Aminoethyl)benzenesulfonyl fluoride hydrochloride] | 42.7 | 40.7 | 57.3 |
